Reference: PubChem BioAssay AID493246 (Drosophila RNAi Screening Center, 2011)
The screen tested about 21,000 reagents; below is an unselected part of those with a known target gene and a result. Of all reagents, 429 (2%) are marked active. 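Values are raw and not normalised between plates; calls rest on per-plate z-scores that were not deposited.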 Names joined by + are all predicted targets of the reagent. No sequences are given here. The record does not give: the amount of reagent, the time to read-out.

- Aim: 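Identify essential fly genes by loss of cell viability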 (primary screen)
- Cell system: Drosophila Kc and S2R+ cells
- Reagent: long dsRNA against Drosophila genes
- Measurement: 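Cell number per well after knock-down, printed as raw plate values; calls were based on per-plate z-scores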
- Reading the numbers: Kc cell number and S2R+ cell number: higher = more cells remaining
- Call rule: 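Active when the per-plate z-score of cell number is 3 or more in the direction of fewer cells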

| Kc cell number, rep 1 | Kc cell number, rep 2 | S2R+ cell number, rep 1 | S2R+ cell number, rep 2 | activity call | predicted target | DRSC id |
| --- | --- | --- | --- | --- | --- | --- |
| 1.43e6 | 1.53e6 | 1.14e6 | 1.15e6 | inactive | Irc (Immune-regulated catalase) | DRSC16454 |
| 1.33e6 | 1.44e6 | 1.33e6 | 1.38e6 | inactive | CG6813 | DRSC16122 |
| 1.51e6 | 1.67e6 | 1.25e6 | 1.36e6 | inactive | CG17005 | DRSC02556 |
| 1.44e6 | 1.48e6 | 1.02e6 | 1.12e6 | inactive | Stt3A | DRSC20514 |
| 1.62e6 | 1.52e6 | 1.07e6 | 1.16e6 | inactive | dmrt11E (doublesex-Mab related 11E) | DRSC19715 |
| 1.50e6 | 1.34e6 | 9.94e5 | 1.28e6 | inactive | Gr57a (Gustatory receptor 57a) | DRSC06401 |
| 1.52e6 | 1.58e6 | 1.26e6 | 1.29e6 | inactive | CG13127 | DRSC02223 |
| 1.42e6 | 1.39e6 | 9.69e5 | 1.14e6 | inactive | CG5214 | DRSC15739 |
| 1.53e6 | 1.49e6 | 1.17e6 | 1.26e6 | inactive | sisA | DRSC20374 |
| 1.50e6 | 1.55e6 | 1.08e6 | 1.15e6 | inactive | CG17600 | DRSC20638 |
| 1.52e6 | 1.53e6 | 1.04e6 | 1.18e6 | inactive | CG17600 | DRSC20640 |
| 1.48e6 | 1.50e6 | 1.30e6 | 1.33e6 | inactive | Irp-1B (Iron regulatory protein 1B) | DRSC16720 |
| 1.28e6 | 1.33e6 | 1.02e6 | 1.12e6 | inactive | CG13409 | DRSC14585 |
| 1.71e6 | 1.80e6 | 1.28e6 | 1.44e6 | inactive | ced-6 | DRSC07591 |
| 1.67e6 | 1.58e6 | 1.11e6 | 1.09e6 | inactive | CG13315 | DRSC09986 |
| 1.53e6 | 1.57e6 | 9.96e5 | 1.04e6 | inactive | CG8728 | DRSC07251 |
| 1.26e6 | 1.24e6 | 1.08e6 | 1.15e6 | inactive | CG32576 + UQCR-14 | DRSC19870 |
| 1.50e6 | 1.54e6 | 1.35e6 | 1.47e6 | inactive | gammaSnap2 (gamma Soluble NSF attachment protein 2) | DRSC15992 |
| 1.60e6 | 1.47e6 | 9.96e5 | 1.19e6 | inactive | HP1D3csd (Heterochromatin Protein 1D3 chromoshadow domain) | DRSC19548 |
| 1.22e6 | 1.46e6 | 1.05e6 | 1.10e6 | inactive | CG31082 (retired record) | DRSC13775 |
| 1.65e6 | 1.93e6 | 1.53e6 | 1.64e6 | inactive | CG12279 | DRSC14495 |
| 1.15e6 | 1.31e6 | 1.07e6 | 1.12e6 | inactive | CG1632 | DRSC17558 |
| 1.52e6 | 1.55e6 | 1.07e6 | 1.22e6 | inactive | CG1632 | DRSC18110 |

Look-ups from the list.
Result for CG1632 [DRSC18110] in “S2R+ cell number, rep 1”: 1.07e6
Under “activity call”, CG13127 [DRSC02223] reads inactive
Under “S2R+ cell number, rep 1”, Gr57a (Gustatory receptor 57a) [DRSC06401] reads 9.94e5

The list goes on.
| Kc cell number, rep 1 | Kc cell number, rep 2 | S2R+ cell number, rep 1 | S2R+ cell number, rep 2 | activity call | predicted target | DRSC id |
| --- | --- | --- | --- | --- | --- | --- |
| 1.43e6 | 1.50e6 | 1.02e6 | 1.11e6 | inactive | CG31029 | DRSC15422 |
| 1.54e6 | 1.51e6 | 1.03e6 | 1.09e6 | inactive | CG17440 | DRSC18126 |
| 1.21e6 | 1.30e6 | 6.60e5 | 8.16e5 | inactive | mxt (mextli) | DRSC00551 |
| 1.68e6 | 1.69e6 | 1.15e6 | 1.31e6 | inactive | Traf4 (TNF-receptor-associated factor 4) | DRSC00445 |
| 1.33e6 | 1.37e6 | 1.07e6 | 1.19e6 | inactive | Traf4 (TNF-receptor-associated factor 4) | DRSC00794 |
| 1.60e6 | 1.66e6 | 1.41e6 | 1.58e6 | inactive | otk2 (off-track2) | DRSC07303 |
| 1.49e6 | 1.60e6 | 1.32e6 | 1.42e6 | inactive | Gr43a (Gustatory receptor 43a) | DRSC06658 |
| 1.33e6 | 1.39e6 | 6.16e5 | 8.86e5 | inactive | Piezo | DRSC03092 |
| 1.71e6 | 1.81e6 | 1.29e6 | 1.51e6 | inactive | Uro (Urate oxidase) | DRSC03469 |
| 1.56e6 | 1.59e6 | 1.14e6 | 1.18e6 | inactive | CG8191 | DRSC20091 |
| 1.60e6 | 1.76e6 | 1.32e6 | 1.43e6 | inactive | CG7800 | DRSC16315 |
| 1.23e6 | 1.22e6 | 1.13e6 | 1.04e6 | inactive | Su(var)2-10 (Suppressor of variegation 2-10) | DRSC07721 |
| 6.32e5 | – | 8.91e5 | – | inactive | Tango2 (Transport and Golgi organization 2) | DRSC19394 |
| 5.84e5 | – | 8.31e5 | – | inactive | ctp (cut up) | DRSC18758 |
| 1.63e6 | 1.49e6 | 1.09e6 | 1.26e6 | inactive | CG14042 + SP555 | DRSC02367 |
| 1.60e6 | 1.55e6 | 1.19e6 | 1.38e6 | inactive | CG14042 + SP555 | DRSC03428 |
| 1.71e6 | 1.70e6 | 1.04e6 | 1.20e6 | inactive | CG9903 | DRSC20213 |
| 1.37e6 | 1.41e6 | 1.01e6 | 1.13e6 | inactive | CG11779 + CG5835 | DRSC15886 |
| 1.64e6 | 1.83e6 | 1.17e6 | 1.26e6 | inactive | Osi18 (Osiris 18) | DRSC12181 |
| 1.52e6 | 1.57e6 | 1.03e6 | 1.13e6 | inactive | wntD (wnt inhibitor of Dorsal) | DRSC16423 |
| 1.35e6 | 1.33e6 | 1.05e6 | 1.15e6 | inactive | VhaM9.7-d (Vacuolar H[+] ATPase M9.7 subunit d) | DRSC15028 |
| 1.52e6 | 1.53e6 | 1.06e6 | 1.22e6 | inactive | Nup35 (Nucleoporin 35kDa) | DRSC19999 |
| 5.44e5 | – | 8.73e5 | – | inactive | Zip99C (Zinc/iron regulated transporter-related protein 99C) | DRSC16320 |
| 1.49e6 | 1.46e6 | 1.06e6 | 1.12e6 | inactive | CG11590 | DRSC19411 |
| 1.26e6 | 1.42e6 | 5.76e5 | 7.30e5 | active | Mrtf (Myocardin-related transcription factor) | DRSC08263 |
| 1.45e6 | 1.36e6 | 9.06e5 | 1.06e6 | inactive | Mrtf (Myocardin-related transcription factor) | DRSC08410 |
| 1.18e6 | 1.20e6 | 1.03e6 | 1.26e6 | inactive | Mrtf (Myocardin-related transcription factor) | DRSC08411 |
| 1.39e6 | 1.63e6 | 1.05e6 | 1.22e6 | inactive | stumps | DRSC13045 |
| 1.19e6 | 1.16e6 | 8.60e5 | 1.01e6 | inactive | stumps | DRSC15332 |
| 1.50e6 | 1.56e6 | 1.22e6 | 1.23e6 | inactive | stumps | DRSC17073 |
| 1.02e6 | 1.06e6 | 1.01e6 | 1.06e6 | inactive | dmGlut (Dietary and metabolic glutamate transporter) | DRSC02835 |
| 1.55e6 | 1.53e6 | 1.05e6 | 1.12e6 | inactive | Or10a (Odorant receptor 10a) | DRSC20264 |
| 1.45e6 | 1.52e6 | 1.09e6 | 1.20e6 | inactive | mRpL44 (mitochondrial ribosomal protein L44) | DRSC12306 |
| 1.50e6 | 1.49e6 | 7.93e5 | 8.39e5 | inactive | Mcr (Macroglobulin complement-related) | DRSC03366 |
| 1.49e6 | 1.56e6 | 9.68e5 | 1.10e6 | inactive | CG13000 | DRSC19519 |
| 1.57e6 | 1.48e6 | 1.21e6 | 1.32e6 | inactive | CG11836 | DRSC14396 |
